{"source": "paper PMC7819943", "about": "“Rice protein-binding microarrays: a tool to detect cis-acting elements near promoter regions in rice”", "note": "Some of the results follow.", "data": [{"molecular_target": "T1, OsSMF1 (Oryza sativa, UniProt Q6ZLB0 1-436)", "T1 sequence": "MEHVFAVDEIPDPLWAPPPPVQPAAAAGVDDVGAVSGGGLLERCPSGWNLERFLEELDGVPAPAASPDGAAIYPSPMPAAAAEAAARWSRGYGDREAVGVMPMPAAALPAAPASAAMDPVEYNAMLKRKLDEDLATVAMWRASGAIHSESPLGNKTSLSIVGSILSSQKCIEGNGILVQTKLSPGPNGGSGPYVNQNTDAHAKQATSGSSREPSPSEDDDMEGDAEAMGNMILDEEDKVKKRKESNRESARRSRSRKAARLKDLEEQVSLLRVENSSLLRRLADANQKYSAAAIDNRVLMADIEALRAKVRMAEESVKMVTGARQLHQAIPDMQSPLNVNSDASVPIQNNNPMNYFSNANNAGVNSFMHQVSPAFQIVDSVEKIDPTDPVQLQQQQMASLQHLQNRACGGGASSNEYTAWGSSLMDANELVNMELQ", "assay": "protein-binding microarray (RPBM); PBS, 2% BSA, 51.3 ng/ul salmon testes DNA, 50 uM zinc acetate, 200 nM TF, 25 C, 1 h; high values mean tight binding", "details": "protein: recombinant; tags: N-terminal polyhistidine and DsRed monomer fusion (pET32a); chain copies: 2; label: CyDye5-dUTP incorporated in the synthesized complementary strand; 3' TTTTT single-stranded linker to array surface; dsDNA, one strand shown", "outline": "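The binding signal is fluorescence intensity per array feature (arbitrary units). Readings came from an Axon 4000B scanner after a washed, 2% BSA-blocked, double-stranded custom Agilent array had been incubated for 1 h at 25 °C with 200 nM protein and 50 µM zinc acetate. The protein was a Ni–NTA-purified transcription factor fused N-terminally to polyhistidine and DsRed, expressed in E. coli BL21-CodonPlus.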", "values": [{"sequence": "GGCCTCACGGGCGGAGGAGCGTGGCCACCACCACCACGGCCGGAGTCACCTAGTGCAG", "binding signal": "3590 fluorescence intensity (a.u.)"}, {"sequence": "TCTCGCCGGTCGACGGCGCGATGCTGCGCGGATTCCCTCACGGAGTCACCTAGTGCAG", "binding signal": "4490 fluorescence intensity (a.u.)"}, {"sequence": "ACCTGTCAGTGGGCCCCACCCCGCACTGGACCCACCTATCCGGAGTCACCTAGTGCAG", "binding signal": "3460 fluorescence intensity (a.u.)"}, {"sequence": "AACCTAAACCTTTCTTGGTCCTGGTCCACATCACGATTGTCGGAGTCACCTAGTGCAG", "binding signal": "4310 fluorescence intensity (a.u.)"}, {"sequence": "TAATTCCAAGCTTGTTTCACCGACCTGCCAAACTCGATTGCGGAGTCACCTAGTGCAG", "binding signal": "3270 fluorescence intensity (a.u.)"}, {"sequence": "GAGAGACCACGACACAGCCAACCCACGCGCCGCGTGGCGCCGGAGTCACCTAGTGCAG", "binding signal": "4230 fluorescence intensity (a.u.)"}, {"sequence": "CCTTTTCACGTGCCGCGCGCCACGTGTTGCGGCGAGACCACGGAGTCACCTAGTGCAG", "binding signal": "11800 fluorescence intensity (a.u.)"}, {"sequence": "CTTCTCCCGGCGAGGCGTCACCCTCAGCAGCCACACGAGACGGAGTCACCTAGTGCAG", "binding signal": "3150 fluorescence intensity (a.u.)"}, {"sequence": "TGTCAAATTGATCCAACGATGAGGTGGATCCTACGAGGAGCGGAGTCACCTAGTGCAG", "binding signal": "5730 fluorescence intensity (a.u.)"}, {"sequence": "ACGAGGAAGCTAATTAACCTGACGCCACCACCTCTCTTTCCGGAGTCACCTAGTGCAG", "binding signal": "4270 fluorescence intensity (a.u.)"}, {"sequence": "GACGGAGCACCTTGATCAATGAGGATTAATTCCTTGGTCTCGGAGTCACCTAGTGCAG", "binding signal": "8900 fluorescence intensity (a.u.)"}, {"sequence": "ACAACCAGAGTGATTTCATCAGCCATGTCATCATCCATGACGGAGTCACCTAGTGCAG", "binding signal": "10200 fluorescence intensity (a.u.)"}, {"sequence": "CATAATTAGCGGTTGATTACTGTAGCATCACTGTAACAAACGGAGTCACCTAGTGCAG", "binding signal": "3730 fluorescence intensity (a.u.)"}, {"sequence": "CATCACACCTAACCGACTCCTTTTCCACACAAACAGATTACGGAGTCACCTAGTGCAG", "binding signal": "20400 fluorescence intensity (a.u.)"}, {"sequence": "GATGGTAGGGGAGGCGGTAGAGCCAAAGCCATAGCATCGGCGGAGTCACCTAGTGCAG", "binding signal": "3360 fluorescence intensity (a.u.)"}, {"sequence": "GCGCGGCGCGGAGCAGAGGAGGACGAAGCAGCAGGCGGCGCGGAGTCACCTAGTGCAG", "binding signal": "4120 fluorescence intensity (a.u.)"}, {"sequence": "GTTTACAGTACTAATGATAGCCACGTGTTTATTGCGGTTACGGAGTCACCTAGTGCAG", "binding signal": "12100 fluorescence intensity (a.u.)"}, {"sequence": "ACAACCCTTTCATTACCAGTCATCTCCTCCCACACTCAGCCGGAGTCACCTAGTGCAG", "binding signal": "3520 fluorescence intensity (a.u.)"}, {"sequence": "CCATGGTACAGTAGGGTTGTCGTCAATCTTGTGTTTCTTTCGGAGTCACCTAGTGCAG", "binding signal": "3150 fluorescence intensity (a.u.)"}, {"sequence": "TTTACCCTTTTGCCCAATGCTATTGCATTTACGTGCCATACGGAGTCACCTAGTGCAG", "binding signal": "3580 fluorescence intensity (a.u.)"}, {"sequence": "CTGCCAGCAGAACACACAGTGACACATTACACCACACACGCGGAGTCACCTAGTGCAG", "binding signal": "3310 fluorescence intensity (a.u.)"}, {"sequence": "TTAATTCTGAATTTCTATTATTTCTTAATTGTATTTCTATCGGAGTCACCTAGTGCAG", "binding signal": "3320 fluorescence intensity (a.u.)"}, {"sequence": "TATATTTGACTGGATGGAGTATCTTGTTTCAAAGAAATCGCGGAGTCACCTAGTGCAG", "binding signal": "28700 fluorescence intensity (a.u.)"}, {"sequence": "ACCAATCTCCTTCGCCCTCTGACTCACTAGCTAGGAAACCCGGAGTCACCTAGTGCAG", "binding signal": "6550 fluorescence intensity (a.u.)"}, {"sequence": "GGCACGTACACAGTCAGATCCACCTTGGCAAGCTATAATCCGGAGTCACCTAGTGCAG", "binding signal": "5880 fluorescence intensity (a.u.)"}, {"sequence": "GATGATGGGACGTGGGGTGGGATCGGAAGTAGGAAAGTTGCGGAGTCACCTAGTGCAG", "binding signal": "3430 fluorescence intensity (a.u.)"}, {"sequence": "CCGCGCCCGCGCGTGAGCGGACTACAGTGTCAGCTTGCTACGGAGTCACCTAGTGCAG", "binding signal": "3250 fluorescence intensity (a.u.)"}, {"sequence": "ACCGAAGCAACTGAGAAGCAGATAGTCAAACTGATTGAAACGGAGTCACCTAGTGCAG", "binding signal": "5390 fluorescence intensity (a.u.)"}, {"sequence": "AGCGCATAGGACGCCATGTTATCCGCCGCCGACTGGGCGGCGGAGTCACCTAGTGCAG", "binding signal": "22800 fluorescence intensity (a.u.)"}, {"sequence": "CCCGCGCGGCGCGGCGCCCCGTGACGATGCGTTGGCCCACCGGAGTCACCTAGTGCAG", "binding signal": "5360 fluorescence intensity (a.u.)"}, {"sequence": "TGACCCCACCGGTCAGTCAGTGCCACGTCAGGACTCCTATCGGAGTCACCTAGTGCAG", "binding signal": "17000 fluorescence intensity (a.u.)"}, {"sequence": "AACGCGCAGCGCCACTGCTGCCACCGCCCGCCGCCTGCCGCGGAGTCACCTAGTGCAG", "binding signal": "3410 fluorescence intensity (a.u.)"}, {"sequence": "GCCGAGGACGACGCAGTCCATCTGTGCCCAATCCACGTGGCGGAGTCACCTAGTGCAG", "binding signal": "13700 fluorescence intensity (a.u.)"}, {"sequence": "ATTTAGCCATGTCATCGTCCACGTGGCATGCCACATAGGCCGGAGTCACCTAGTGCAG", "binding signal": "15400 fluorescence intensity (a.u.)"}, {"sequence": "GCCGACGGCATCGTCGTCAACGGCAACGGGTTCCACGCGGCGGAGTCACCTAGTGCAG", "binding signal": "4280 fluorescence intensity (a.u.)"}, {"sequence": "CATTTATTTTATTATGACTTGACTTATCATCAAATAATCTCGGAGTCACCTAGTGCAG", "binding signal": "27900 fluorescence intensity (a.u.)"}, {"sequence": "TGTAAGCATCAGCATGTCAAGGTTAACACCTCACTATCTCCGGAGTCACCTAGTGCAG", "binding signal": "4630 fluorescence intensity (a.u.)"}, {"sequence": "TTCTCTGCTCCTTGGCTCGTCTCCACGGCGTCATTCCGTGCGGAGTCACCTAGTGCAG", "binding signal": "3880 fluorescence intensity (a.u.)"}, {"sequence": "AATATAGCCAACTGCATAGAGCCAGCTCATGCATATTGGTCGGAGTCACCTAGTGCAG", "binding signal": "4150 fluorescence intensity (a.u.)"}, {"sequence": "CGCCGCCTGCGCAACCACACCACAGACGCGTCACCACCCACGGAGTCACCTAGTGCAG", "binding signal": "10100 fluorescence intensity (a.u.)"}, {"sequence": "GAACCTCGAAGAACTTCCGATGCTCCCGTGGCATGCTATACGGAGTCACCTAGTGCAG", "binding signal": "4110 fluorescence intensity (a.u.)"}, {"sequence": "TCCCCACGTTGCATCCCGTCATCCCCATCGAGCGATCCCCCGGAGTCACCTAGTGCAG", "binding signal": "5760 fluorescence intensity (a.u.)"}]}]}
